PubChem BioAssay AID652259 – Drosophila RNAi Screening Center | 2013
The screen tested about 22,000 reagents; below is an unselected part of those that have a named target and a result. In the full data, 233 (1.1%) got an active call. 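Light values are raw, unnormalised plate reads; the ratio scores behind the reporter calls were not deposited.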 The numbers tell different reagents against one gene apart. The record does not give: the amount of reagent, the time to read-out, the dose of the treatment.

Assay: 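Identify new Wingless signalling regulators in fly cells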 (primary screen)
System: Drosophila clone 8 imaginal disc epithelial cells
Reagents: long dsRNA against Drosophila genes
Challenge: pathway stimulated by co-transfected Wingless expression plasmid
Measurement: 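Dual luciferase reads per well after Wingless plasmid stimulation: reporter firefly light and Renilla control light; activity is firefly divided by Renilla, a ratio not deposited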
Direction: firefly reporter light: higher = more Wg reporter light, before normalisation; Renilla control light: higher = more transfected or surviving cells
Active means: 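a knock-down is a candidate when at least two out of four statistical tests show it departing from its plate mean; one test alone signals a weak candidate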
Calls: active = candidate regulator (raises or lowers reporter); inactive = not a candidate

gene | reagent | reporter change call, replicate 1 | firefly reporter light, replicate 1 | firefly reporter light, replicate 2 | Renilla control light, replicate 1 | Renilla control light, replicate 2 | activity call
Septin2 (Septin 2) | 1 | – | 5353 | 6162 | 1338 | 1627 | inactive
Trmt6 (tRNA methyltransferase 6 non-catalytic subunit) | 1 | – | 2280 | 7442 | 957 | 3361 | inactive
BBS8 (Bardet-Biedl syndrome 8) | 1 | – | 5450 | 12587 | 1754 | 3766 | inactive
rdgA (retinal degeneration A) | 1 | – | 16043 | – | 9035 | – | inactive
rdgA (retinal degeneration A) | 2 | – | 23680 | – | 12464 | – | inactive
rdgA (retinal degeneration A) | 3 | – | 2394 | 8812 | 994 | 3111 | inactive
mtg (mind the gap) | 1 | – | 18373 | – | 4864 | – | inactive
CG14488 | 1 | – | 5338 | – | 1969 | – | inactive
ArgRS-m (Arginyl-tRNA synthetase, mitochondrial) | 1 | – | 12572 | – | 3142 | – | inactive
Pus7 (Pseudouridine synthase 7) | 1 | – | 1885 | 5508 | 1210 | 2439 | inactive
CG43155 | 1 | – | 23538 | – | 12403 | – | inactive
CG43155 | 2 | – | 22264 | – | 9680 | – | inactive
CG32554 | 1 | – | 5.41e5 | 5.25e5 | 1.69e5 | 1.84e5 | inactive
CG12607 | 1 | – | 1920 | 10824 | 1543 | 4693 | inactive
CG14722 | 1 | – | 4950 | – | 2262 | – | inactive
Uhg3 (U snoRNA host gene 3) | 1 | – | 6.04e5 | 6.35e5 | 2.59e5 | 2.17e5 | inactive
CG31464 | 1 | – | 15848 | – | 4848 | – | inactive
CG10081 | 1 | – | 4262 | – | 2284 | – | inactive
t-Grip84 (testis-specific gamma-tubulin ring protein 84) | 1 | – | 977 | 6325 | 1200 | 3008 | inactive
CG18508 | 1 | – | 28235 | – | 12688 | – | inactive
CG17780 | 1 | – | 20005 | – | 13442 | – | inactive
CG3436 | 1 | – | 7218 | – | 2820 | – | inactive
CG5265 | 1 | – | 11348 | – | 3152 | – | inactive
tup (tailup) | 1 | – | 10968 | – | 2520 | – | inactive
CG33521 | 1 | – | 3250 | – | 1507 | – | inactive
CG33521 | 2 | – | 19692 | – | 12253 | – | inactive
CG33521 | 3 | – | 7.43e5 | 8.50e5 | 3.70e5 | 3.96e5 | inactive
mRpL45 (mitochondrial ribosomal protein L45) | 1 | – | 21062 | – | 13949 | – | inactive
Oat (Ornithine aminotransferase precursor) | 1 | – | 4522 | – | 2198 | – | inactive
CG15741 | 1 | – | 27400 | – | 9580 | – | inactive
Lip2 (Lipase 2) | 1 | – | 3044 | 5130 | 1270 | 3178 | inactive
Lip2 (Lipase 2) | 2 | – | 2755 | 7712 | 1094 | 3897 | inactive
Liprin-gamma | 1 | – | 3980 | – | 1131 | – | inactive
CG12093 | 1 | – | 20097 | – | 6679 | – | inactive
CG7856 | 1 | – | 3334 | 7008 | 981 | 3031 | inactive
Fur2 (Furin 2) | 1 | – | 11905 | – | 6104 | – | inactive
chrb (charybde) | 1 | – | 8038 | – | 4096 | – | inactive
CG3253 | 1 | – | 18843 | 7.62e5 | 7192 | 4.08e5 | inactive
rb (ruby) | 1 | – | 24722 | – | 14277 | – | inactive
arg (arginase) | 1 | – | 2736 | 11169 | 1081 | 3292 | inactive
danr (distal antenna-related) | 1 | – | 19762 | – | 14348 | – | inactive
CG4955 | 1 | – | 3248 | 6410 | 1325 | 2560 | inactive
CG4270 | 1 | – | 2233 | 6457 | 1156 | 2449 | inactive
jus (julius seizure) | 1 | Wg reporter activity raised | 9744 | – | 1387 | – | active
jus (julius seizure) | 2 | – | 7611 | – | 2176 | – | inactive
Cyp4p1 (Cytochrome P450 4p1) | 1 | – | 4170 | 10773 | 1020 | 4045 | inactive
mthl11 (methuselah-like 11) | 1 | – | 3961 | – | 1496 | – | inactive
mfr (misfire) | 1 | – | 1280 | 5216 | 1015 | 2845 | inactive
CG8850 | 1 | – | 6122 | – | 2539 | – | inactive
Cdlc2 (Cytoplasmic dynein light chain 2) | 1 | – | 14480 | – | 4124 | – | inactive
Brms1 (BRMS1 transcriptional repressor) | 1 | – | 17952 | – | 10960 | – | inactive
sff (sugar-free frosting) | 1 | – | 5916 | – | 1899 | – | inactive
CG42471 | 1 | – | 20541 | – | 10307 | – | inactive
Art8 (Arginine methyltransferase 8) | 1 | – | 2445 | 8066 | 941 | 3972 | inactive
r-l (rudimentary-like) | 1 | – | 4916 | 11081 | 2209 | 2872 | inactive
r-l (rudimentary-like) | 2 | – | 4.95e5 | 5.65e5 | 3.40e5 | 3.74e5 | inactive
CG31523 | 1 | – | 3556 | – | 1574 | – | inactive
CG31523 | 2 | – | 7691 | 7.32e5 | 3689 | 3.53e5 | inactive
CG8750 | 1 | – | 7120 | – | 2231 | – | inactive
Bub1 (Bub1 kinase) | 1 | Wg reporter activity raised | 28913 | – | 3084 | – | active
CG11317 | 1 | – | 3549 | 6048 | 1154 | 2104 | inactive
CG13365 | 1 | – | 21350 | – | 18356 | – | inactive
MED31 (Mediator complex subunit 31) | 1 | Wg reporter activity raised | 13749 | – | 2027 | – | active
CG5853 | 1 | – | 18925 | – | 11004 | – | inactive
CG5853 | 2 | – | 8066 | – | 1895 | – | inactive
p24-1 (p24-related-1) | 1 | – | 16359 | – | 8605 | – | inactive
CG34409 | 1 | – | 13634 | – | 3107 | – | inactive
CG34409 | 2 | – | 5.77e5 | 6.88e5 | 3.75e5 | 2.95e5 | inactive
CG9717 | 1 | – | 7078 | – | 2676 | – | inactive
bbc (bb in a boxcar) | 1 | – | 19638 | – | 6352 | – | inactive
bbc (bb in a boxcar) | 2 | – | 3.77e5 | 4.02e5 | 1.67e5 | 1.65e5 | inactive
Cyp6a16Psi (retired record) | 1 | – | 2057 | 3571 | 850 | 1050 | inactive
CG15771 | 1 | – | 25751 | – | 7144 | – | inactive
CG9822 | 1 | – | 2784 | 8258 | 1160 | 2599 | inactive
Droj2 (DnaJ-like-2) | 1 | – | 5879 | – | 1968 | – | inactive
pio (piopio) | 1 | – | 12224 | – | 3403 | – | inactive
veil | 1 | – | 18721 | – | 5225 | – | inactive
CG13308 | 1 | – | 1568 | 5853 | 1497 | 2709 | inactive
Dna2 (DNA replication helicase/nuclease 2) | 1 | – | 2160 | 5514 | 777 | 1380 | inactive
Fancd2 | 1 | – | 16555 | – | 4682 | – | inactive
Fancd2 | 2 | – | 3.61e5 | 3.91e5 | 1.52e5 | 11792 | inactive
CG32537 | 1 | – | 3970 | 9632 | 854 | 2861 | inactive
SERCA (Sarco/endoplasmic reticulum Ca(2+)-ATPase) | 1 | – | 15453 | – | 3632 | – | inactive
CG34176 | 1 | – | 4056 | 8425 | 1234 | 2345 | inactive
CG5376 | 1 | – | 34412 | – | 7815 | – | inactive
Gld (Glucose dehydrogenase) | 1 | – | 10224 | – | 3924 | – | inactive
Nepl11 (Neprilysin-like 11) | 1 | – | 8362 | – | 3451 | – | inactive
vls (valois) | 1 | – | 7936 | – | 2992 | – | inactive
v (vermilion) | 1 | – | 2240 | 6086 | 640 | 1917 | inactive
Spt7 | 1 | – | 3376 | 6900 | 1368 | 2597 | inactive
amos (absent MD neurons and olfactory sensilla) | 1 | – | 2037 | 6340 | 466 | 2916 | inactive
yip2 (yippee interacting protein 2) | 1 | – | 2724 | 4549 | 810 | 2131 | inactive
Ctr1A (Copper transporter 1A) | 1 | – | 20696 | – | 10121 | – | inactive

8 entries from above in another layout:
gene,reagent,"reporter change call, replicate 1","firefly reporter light, replicate 1","firefly reporter light, replicate 2","Renilla control light, replicate 1","Renilla control light, replicate 2",activity call
CG10081,1,,4262,,2284,,inactive
t-Grip84 (testis-specific gamma-tubulin ring protein 84),1,,977,6325,1200,3008,inactive
CG18508,1,,28235,,12688,,inactive
CG17780,1,,20005,,13442,,inactive
CG3436,1,,7218,,2820,,inactive
CG5265,1,,11348,,3152,,inactive
tup (tailup),1,,10968,,2520,,inactive
CG33521,1,,3250,,1507,,inactive
